This note sets out measurements from publication PMC9792576.

By UniProt entry, the sequences of proteins in these tests, tags left out.
UniProt B2RWS6: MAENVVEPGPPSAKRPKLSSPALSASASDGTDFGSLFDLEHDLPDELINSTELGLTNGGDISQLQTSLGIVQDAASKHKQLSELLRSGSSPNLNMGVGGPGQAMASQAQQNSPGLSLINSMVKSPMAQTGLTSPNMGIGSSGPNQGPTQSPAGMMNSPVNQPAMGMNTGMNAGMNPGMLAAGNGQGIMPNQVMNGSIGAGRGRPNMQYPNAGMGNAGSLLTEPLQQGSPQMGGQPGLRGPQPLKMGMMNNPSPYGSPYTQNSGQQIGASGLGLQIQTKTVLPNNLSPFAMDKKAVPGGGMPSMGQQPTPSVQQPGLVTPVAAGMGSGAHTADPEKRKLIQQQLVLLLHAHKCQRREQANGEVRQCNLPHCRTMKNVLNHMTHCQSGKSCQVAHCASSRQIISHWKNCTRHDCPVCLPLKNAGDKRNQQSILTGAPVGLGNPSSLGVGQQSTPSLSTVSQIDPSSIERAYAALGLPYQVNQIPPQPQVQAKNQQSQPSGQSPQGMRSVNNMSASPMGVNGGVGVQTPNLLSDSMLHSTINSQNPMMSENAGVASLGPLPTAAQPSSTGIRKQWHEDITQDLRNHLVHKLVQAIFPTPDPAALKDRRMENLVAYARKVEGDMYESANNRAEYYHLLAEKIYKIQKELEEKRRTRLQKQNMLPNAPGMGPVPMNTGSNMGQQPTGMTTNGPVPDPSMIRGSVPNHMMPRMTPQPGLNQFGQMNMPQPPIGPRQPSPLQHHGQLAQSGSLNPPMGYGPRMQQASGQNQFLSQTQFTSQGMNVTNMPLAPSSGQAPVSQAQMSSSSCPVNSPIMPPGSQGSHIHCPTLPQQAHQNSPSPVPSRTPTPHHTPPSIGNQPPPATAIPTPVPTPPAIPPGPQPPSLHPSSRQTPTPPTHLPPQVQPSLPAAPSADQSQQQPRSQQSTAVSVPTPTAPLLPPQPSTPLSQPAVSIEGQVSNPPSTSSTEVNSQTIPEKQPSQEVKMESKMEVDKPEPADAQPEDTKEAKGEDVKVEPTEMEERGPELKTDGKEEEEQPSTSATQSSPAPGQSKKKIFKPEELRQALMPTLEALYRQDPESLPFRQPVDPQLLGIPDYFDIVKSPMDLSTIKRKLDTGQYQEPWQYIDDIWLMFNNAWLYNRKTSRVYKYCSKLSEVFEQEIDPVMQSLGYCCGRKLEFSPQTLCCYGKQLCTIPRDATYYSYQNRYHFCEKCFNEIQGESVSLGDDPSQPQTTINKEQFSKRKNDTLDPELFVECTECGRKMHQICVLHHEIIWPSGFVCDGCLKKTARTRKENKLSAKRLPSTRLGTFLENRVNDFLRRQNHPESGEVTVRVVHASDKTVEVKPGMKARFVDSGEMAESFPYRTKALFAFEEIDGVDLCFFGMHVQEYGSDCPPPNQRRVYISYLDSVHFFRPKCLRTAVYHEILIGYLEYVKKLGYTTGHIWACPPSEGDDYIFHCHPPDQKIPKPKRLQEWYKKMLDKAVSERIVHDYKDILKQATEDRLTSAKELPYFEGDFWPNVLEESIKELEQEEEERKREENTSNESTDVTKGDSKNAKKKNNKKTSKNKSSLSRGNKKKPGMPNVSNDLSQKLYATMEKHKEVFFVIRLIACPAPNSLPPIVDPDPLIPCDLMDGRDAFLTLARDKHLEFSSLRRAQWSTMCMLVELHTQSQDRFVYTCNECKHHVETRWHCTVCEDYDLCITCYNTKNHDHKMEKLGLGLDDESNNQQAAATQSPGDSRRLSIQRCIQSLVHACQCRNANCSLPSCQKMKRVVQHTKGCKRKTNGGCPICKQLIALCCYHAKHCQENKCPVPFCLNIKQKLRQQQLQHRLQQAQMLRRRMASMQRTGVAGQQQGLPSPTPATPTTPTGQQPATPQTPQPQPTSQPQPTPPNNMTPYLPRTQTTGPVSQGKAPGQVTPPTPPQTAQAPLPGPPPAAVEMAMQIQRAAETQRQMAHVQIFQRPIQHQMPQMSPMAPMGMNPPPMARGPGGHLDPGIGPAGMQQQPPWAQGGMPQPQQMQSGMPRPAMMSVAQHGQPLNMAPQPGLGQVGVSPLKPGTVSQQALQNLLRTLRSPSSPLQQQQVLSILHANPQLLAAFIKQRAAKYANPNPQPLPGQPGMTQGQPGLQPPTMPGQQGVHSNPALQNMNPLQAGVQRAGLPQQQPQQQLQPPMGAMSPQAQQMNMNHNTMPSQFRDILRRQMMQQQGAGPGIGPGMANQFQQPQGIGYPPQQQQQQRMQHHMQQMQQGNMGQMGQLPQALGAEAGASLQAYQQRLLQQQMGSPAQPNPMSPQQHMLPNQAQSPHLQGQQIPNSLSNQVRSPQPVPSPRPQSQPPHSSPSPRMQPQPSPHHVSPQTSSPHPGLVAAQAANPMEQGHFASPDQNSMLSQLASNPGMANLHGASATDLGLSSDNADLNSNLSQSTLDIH
UniProt Q09472: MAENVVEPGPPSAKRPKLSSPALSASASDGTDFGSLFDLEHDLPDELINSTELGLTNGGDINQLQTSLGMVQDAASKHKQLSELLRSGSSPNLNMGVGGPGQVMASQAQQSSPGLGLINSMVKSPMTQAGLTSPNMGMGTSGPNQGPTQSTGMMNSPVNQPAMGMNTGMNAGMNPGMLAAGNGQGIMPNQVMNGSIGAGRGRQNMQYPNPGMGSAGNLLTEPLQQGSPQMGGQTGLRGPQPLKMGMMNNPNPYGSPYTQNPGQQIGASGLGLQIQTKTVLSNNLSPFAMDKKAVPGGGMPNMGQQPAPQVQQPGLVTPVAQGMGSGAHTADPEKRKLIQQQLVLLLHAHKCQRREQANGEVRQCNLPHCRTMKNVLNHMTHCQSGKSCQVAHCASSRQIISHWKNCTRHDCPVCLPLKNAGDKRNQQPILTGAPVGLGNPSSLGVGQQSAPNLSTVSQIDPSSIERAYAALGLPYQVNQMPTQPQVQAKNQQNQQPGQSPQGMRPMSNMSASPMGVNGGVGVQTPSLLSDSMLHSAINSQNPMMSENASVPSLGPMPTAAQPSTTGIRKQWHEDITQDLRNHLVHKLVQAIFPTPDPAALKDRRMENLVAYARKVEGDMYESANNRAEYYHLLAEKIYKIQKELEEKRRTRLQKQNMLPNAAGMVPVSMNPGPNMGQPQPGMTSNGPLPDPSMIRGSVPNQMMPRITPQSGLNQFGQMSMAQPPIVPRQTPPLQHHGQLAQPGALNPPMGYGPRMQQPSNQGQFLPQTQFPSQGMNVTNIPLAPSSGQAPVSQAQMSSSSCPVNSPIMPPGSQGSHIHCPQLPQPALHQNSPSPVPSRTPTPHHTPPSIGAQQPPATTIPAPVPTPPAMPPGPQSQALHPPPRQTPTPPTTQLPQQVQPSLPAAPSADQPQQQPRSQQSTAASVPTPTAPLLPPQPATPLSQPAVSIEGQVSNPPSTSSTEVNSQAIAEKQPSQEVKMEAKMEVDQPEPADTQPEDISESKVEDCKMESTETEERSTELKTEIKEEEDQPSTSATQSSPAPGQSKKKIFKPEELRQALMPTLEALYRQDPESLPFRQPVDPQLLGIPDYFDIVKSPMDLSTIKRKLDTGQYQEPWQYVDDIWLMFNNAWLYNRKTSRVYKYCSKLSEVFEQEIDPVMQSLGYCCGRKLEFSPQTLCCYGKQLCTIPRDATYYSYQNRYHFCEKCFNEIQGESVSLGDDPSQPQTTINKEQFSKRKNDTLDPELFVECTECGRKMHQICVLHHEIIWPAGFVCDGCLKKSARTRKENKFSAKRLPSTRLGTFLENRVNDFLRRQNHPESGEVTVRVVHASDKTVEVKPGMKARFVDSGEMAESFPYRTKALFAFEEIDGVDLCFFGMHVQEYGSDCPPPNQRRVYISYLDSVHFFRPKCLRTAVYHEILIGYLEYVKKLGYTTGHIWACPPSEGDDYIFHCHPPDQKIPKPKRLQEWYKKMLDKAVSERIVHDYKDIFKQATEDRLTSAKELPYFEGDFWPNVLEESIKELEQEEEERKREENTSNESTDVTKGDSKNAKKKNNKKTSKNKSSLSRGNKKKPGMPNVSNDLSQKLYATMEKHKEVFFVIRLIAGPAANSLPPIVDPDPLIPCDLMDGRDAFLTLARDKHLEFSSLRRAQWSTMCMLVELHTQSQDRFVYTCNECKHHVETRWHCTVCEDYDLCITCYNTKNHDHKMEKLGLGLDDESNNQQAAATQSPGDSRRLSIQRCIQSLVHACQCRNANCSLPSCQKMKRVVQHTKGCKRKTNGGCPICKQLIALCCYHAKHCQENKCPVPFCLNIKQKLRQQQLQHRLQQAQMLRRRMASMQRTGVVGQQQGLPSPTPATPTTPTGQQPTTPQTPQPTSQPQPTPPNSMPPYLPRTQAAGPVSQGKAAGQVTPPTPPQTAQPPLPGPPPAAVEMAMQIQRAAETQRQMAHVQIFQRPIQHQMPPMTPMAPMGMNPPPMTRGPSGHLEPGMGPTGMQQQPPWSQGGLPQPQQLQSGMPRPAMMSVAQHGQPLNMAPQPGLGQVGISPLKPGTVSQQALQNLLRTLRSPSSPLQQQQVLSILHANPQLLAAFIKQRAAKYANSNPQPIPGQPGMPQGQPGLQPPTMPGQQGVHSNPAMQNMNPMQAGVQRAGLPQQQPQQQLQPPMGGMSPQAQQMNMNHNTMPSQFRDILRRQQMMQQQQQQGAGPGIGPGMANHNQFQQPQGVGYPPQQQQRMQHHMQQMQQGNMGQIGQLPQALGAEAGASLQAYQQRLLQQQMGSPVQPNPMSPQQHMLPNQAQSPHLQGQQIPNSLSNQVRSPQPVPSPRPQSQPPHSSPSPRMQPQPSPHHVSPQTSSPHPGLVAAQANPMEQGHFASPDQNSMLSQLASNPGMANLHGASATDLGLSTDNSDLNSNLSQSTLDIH

Assay [1] deals with T1, Flag-DLD (UniProt O08749).
T1 sequence: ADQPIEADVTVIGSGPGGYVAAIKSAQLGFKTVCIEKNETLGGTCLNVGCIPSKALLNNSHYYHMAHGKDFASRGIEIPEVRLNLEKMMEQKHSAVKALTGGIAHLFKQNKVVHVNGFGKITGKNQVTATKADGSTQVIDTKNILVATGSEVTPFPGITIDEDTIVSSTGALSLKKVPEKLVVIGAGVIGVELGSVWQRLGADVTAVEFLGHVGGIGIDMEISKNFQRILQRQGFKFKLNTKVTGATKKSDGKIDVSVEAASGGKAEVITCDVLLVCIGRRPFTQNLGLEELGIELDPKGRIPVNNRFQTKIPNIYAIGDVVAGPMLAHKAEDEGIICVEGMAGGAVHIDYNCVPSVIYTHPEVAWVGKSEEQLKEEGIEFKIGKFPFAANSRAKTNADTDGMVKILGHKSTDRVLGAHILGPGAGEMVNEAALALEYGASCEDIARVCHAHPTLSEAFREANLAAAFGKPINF
The assay is described as follows: co-IP; lysates of HEK293 cells transfected with HA-P300 and Flag-DLD (RIPA buffer with protease inhibitors); reciprocal immunoprecipitation, overnight at 4 °C, protein-G/A agarose.

Assay [2] concerns the target P300, endogenous in mouse adult cardiomyocytes (mouse (endogenous in adult cardiomyocytes)) (UniProt B2RWS6). The assay is described as follows: co-IP; lysates of mouse adult cardiomyocytes (RIPA buffer with protease inhibitors); immunoprecipitated with anti-DLD and probed with anti-P300, and inversely; overnight at 4 °C, protein-G/A agarose.
The target in assay [3] is HA-P300 (UniProt Q09472). Put plainly: co-IP; lysates of HEK293 cells transfected with HA-P300 and Flag-DLD (RIPA buffer with protease inhibitors); reciprocal immunoprecipitation, overnight at 4 °C, protein-G/A agarose.

No constants are given. Whether binding was seen depends on the method and setting. In cells and extracts the contact can be indirect. Some results given as binding are weak or reduced against the parent protein; the word gives no strength. For part of these data: Where a sequence is shown, tags or fusion partners need not be part of it.

Consider HA-P300 (from UniProt Q09472 1-2414), for which, in assay [1], the binding result is “binds”.

B1: Dihydrolipoamide dehydrogenase (DLD), endogenous in mouse adult cardiomyocytes (protein, UniProt O08749 36-509)
chain: T1 sequence
As for B1, in assay [2], the binding result is given as “binds”.

B2: Flag-DLD (protein, UniProt O08749 36-509)
chain: T1 sequence
B2: in assay [3], the binding entry is reported as “binds”.
